The record followed here is PubChem BioAssay AID2685 (National Center for Advancing Translational Sciences (NCATS), 2010).

Each structure is given as a SMILES string. Some of the results follow. These are further read-outs of the screen, such as a control signal, another cell line or another target. No call is given for them. The list favours compounds with an active or inconclusive main result. Words in brackets tell the shape of the fitted curve; partial curves, single points and poor fits give uncertain potencies.

This test in a line: qHTS Assay for Lipid Storage Modulators in Drosophila S3 Cells.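 On cell number change: cells counted by Cell Tracker Red CMTPX staining in the red channel.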 To be noted: BODIPY lipid droplet fluorescence, 18-24 h; for cell number change: measured here: cell count max response, cells fed with added oleic acid. Summed up:
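Drosophila S3 cells loaded with oleic acid (400 uM, as added) and compounds at several concentrations; lipid droplets imaged by 488-nm laser-scanning cytometry, 500–530 nm intensity and object ratio to cell channel. Percent activity normalized to 20 uM Triacsin C.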

[1] abbreviates: measured here: cell number channel AC50, cells fed with added oleic acid.
[2] abbreviates: measured here: lipid fluorescence (Fed channel) AC50, cells fed with added oleic acid.

Regarding `CCN1/C(=C2/SC(=S)N(NC(C)=O)C2=O)Sc2ccccc21`, the cell number change was 33.1%. In addition, the AC50 under setting [1] is 14.6 µM [rising, single point].

Consider `O=Nc1c(-c2ccccc2)[nH]n(-c2ccccc2)c1=O`, for which the cell number change was -41.2%. Besides, the AC50 under setting [1] was 29.1 µM [falling, partial curve, poor fit]. Moreover, the AC50 under setting [2] is 0.58 µM [falling, full curve].

For `Cc1ccsc1/C=N/n1c(-c2ccco2)n[nH]c1=S`, the cell number change is -33.5%. In addition, the AC50 under setting [1] is 0.82 µM [falling, full curve]. Moreover, the concentration at half-maximal activity (AC50) under setting [2] is 4.61 µM [falling, partial curve, poor fit].

Consider `Cc1ccc(C(=O)Nc2ccc(N3CCN(S(C)(=O)=O)CC3)cc2)cc1`, for which the cell number change is -73.5%. Under setting [1], the AC50 is 29.1 µM [falling, single point]. Further, the AC50 under setting [2] was 10.3 µM [falling, single point].

For `CCCC(=O)Nc1ccc(-c2nc3cc(C)ccc3o2)cc1`, the cell number change is -11.6%. Further, the AC50 under setting [2] is 2.06 µM [rising, partial curve].

For `Cc1cc(=O)oc2cc(NC(=O)C(C)Oc3ccc(F)cc3)ccc12` (centres undefined), the cell number change was determined as 41.7%. Moreover, under setting [1], the AC50 is 11.6 µM [rising, partial curve]. In addition, the AC50 under setting [2] was 20.6 µM [rising, single point].

For `CC(C)c1nn2c(=O)cc(COc3cccc(NC(=O)c4ccco4)c3)nc2s1`, under setting [2], the AC50 is 6.51 µM [falling, full curve].

Consider `CCCCOC(=O)CSC1=C(C#N)C(c2cccnc2)C(C(=O)OCC)=C(c2ccccc2)N1` (centres undefined), for which the cell number change amounted to 4.75%. Moreover, the AC50 under setting [1] is 1.3 µM [rising, full curve, poor fit].

On to `CC1CCN(c2ccc(-c3ccc(NC(=O)c4ccco4)cc3)nn2)CC1`, for which the cell number change was determined as 22.8%. In addition, under setting [2], the AC50 was 16.4 µM [rising, partial curve, poor fit].

In the case of `COc1ccc(S(=O)(=O)Nc2ccc(-c3ccc(N4CCCC4)nn3)cc2)cc1C`, the cell number change came to 7.07%. Moreover, the AC50 under setting [1] is 4.11 µM [rising, single point].

Regarding `O=C(Nc1ccccc1)OCc1cc(-c2ccccc2Cl)on1`, the cell number change came to 18.2%. The half-maximal activity concentration (AC50) under setting [2] is 6.51 µM [rising, single point].

As to `O=C(Nc1ccc(N2CCCCCC2)cc1)c1ccc[nH]1`, the cell number change was -11%. Also, the AC50 under setting [2] was 0.58 µM [falling, single point].

On to `Cc1ccccc1-n1nnnc1SCc1cc(=O)n2ccsc2n1`, for which the cell number change came to 17.7%. Further, the AC50 under setting [1] was 0.231 µM [rising, full curve, poor fit]. Under setting [2], the concentration at half-maximal activity (AC50) is 0.116 µM [falling, full curve, poor fit].

For `C/C(=N/Nc1ccc([N+](=O)[O-])cc1)c1ccc(C)cc1C`, the cell number change is -53.1%. In addition, the AC50 under setting [1] is 20.6 µM [falling, single point]. Moreover, the AC50 under setting [2] is 16.4 µM [falling, single point].

Turning to `CC1CC(C)CN(S(=O)(=O)N2CCC(C(=O)NCc3ccco3)CC2)C1` (centres undefined), the cell number change is -14.2%.

`Cn1cnc([N+](=O)[O-])c1N=C(N)N`: the cell number change was determined as 24.9%.

As to `Cc1nnc(N(CCC#N)CCC#N)s1`, the cell number change was 2.34%. In addition, the AC50 under setting [1] is 0.00651 µM [falling, full curve, poor fit].

As for `O=C1NC(c2ccccc2)=CC(c2ccccc2)N1` (centres undefined), the cell number change is 19.7%.

With `C=CCCC(=O)Nc1ccc(COC(=O)N2CCOCC2)cc1`, the cell number change worked out at 6.71%. Also, under setting [2], the AC50 was 1.03 µM [falling, full curve].

For `CC(=O)N1/C(=C/c2ccc(N(C)C)cc2)C(=O)c2ccccc21`, the cell number change is -5.91%.

As for `CCc1nc(NCc2ccc3c(c2)OCO3)c2oc3ccccc3c2n1`, the cell number change is -19.7%. Also, the AC50 under setting [2] was 0.461 µM [rising, single point].

As for `Cc1ccc(-n2ncc(C#N)c2/N=C/N(C)C)cc1`, the cell number change amounted to 55.8%. Also, the AC50 under setting [1] is 6.51 µM [rising, partial curve, poor fit]. The AC50 under setting [2] is 0.103 µM [rising, full curve].

Take `Cc1nn(Cc2c(Cl)cccc2Cl)c(C)c1N`: the cell number change was determined as 10.6%. Also, the half-maximal activity concentration (AC50) under setting [1] is 6.51 µM [falling, single point]. Further, the AC50 under setting [2] was 3.66 µM [falling, single point].

With `O=C1CCCC2=C1C(c1ccc(O)c(O)c1)c1c(ccc3ncccc13)N2` (centres undefined), the cell number change was -61.9%. The AC50 under setting [1] is 29.1 µM [falling, single point].

With `O=C1c2ccccc2C(Nc2cccc(C(F)(F)F)c2)N1Cc1ccco1` (centres undefined), the AC50 is, setting by setting: under setting [1], 6.51 µM [rising, single point]; under setting [2], 0.116 µM [rising, full curve, poor fit].

Take `O=C(CCl)N1N=C(c2ccco2)CC1c1ccco1` (centres undefined): the cell number change is -5.56%. Also, the AC50 under setting [2] was 20.6 µM [falling, partial curve].

As for `COc1ccc(CN2C(=O)CC(C(=O)NCCc3ccc(S(N)(=O)=O)cc3)SC2=Nc2ccccc2)cc1` (centres undefined), the cell number change was -3.15%.

Consider `CC(C)C[C@H](NC(=O)OC(C)(C)C)C(=O)N[C@@H](CO)[C@H](O)[C@@H]1C[C@@H]1C(=O)NC1CCCCC1`, for which the cell number change was determined as 0.971%.

Consider `CCCCn1c(C)nc2cc(S(=O)(=O)N3CCOCC3)ccc21`, for which the cell number change is -34.6%. Further, the AC50 under setting [1] was 29.1 µM [falling, single point]. The AC50 under setting [2] was 29.1 µM [falling, single point].

Turning to `C=CCN1c2ccccc2[C@]23C[C@@H](C(=O)OC)N(C(=O)c4ccc(Br)cc4)C2=NC(C(=O)OC)=C(C(=O)OC)[C@H]13`, the cell number change is -54.9%. In addition, the AC50 under setting [1] is 6.51 µM [falling, partial curve]. In addition, under setting [2], the AC50 is 9.2 µM [falling, partial curve].

On to `N#Cc1c(C(F)(F)F)cc(-c2ccccc2Cl)[nH]c1=O`, for which the cell number change is -41%. Further, the AC50 under setting [1] is 7.31 µM [falling, partial curve]. Moreover, the AC50 under setting [2] was 9.2 µM [falling, partial curve].

Consider `COc1ccccc1OCC(O)CO` (centres undefined), for which the half-maximal activity concentration (AC50) under setting [2] is 2.91 µM [rising, partial curve].

Take `COC(=O)c1[nH]c2ccc(F)cc2c1NC(=O)CCN1CC(C)OC(C)C1` (centres undefined): the cell number change was -10.7%.

As to `Cc1cc(NC(=O)COC(=O)c2cc([N+](=O)[O-])ccc2N2CCOCC2)ccc1Br`, the cell number change turned out to be 15.1%. The AC50 under setting [1] was 1.64 µM [rising, partial curve]. The AC50 under setting [2] was 1.03 µM [rising, full curve].

For `CCn1c(/C=C2\C(=O)N(C)c3ccccc32)nc2ccccc2c1=O`, the cell number change stood at 3.29%.

Regarding `O=S(=O)(NCC(c1cccnc1)N1CCN(c2ccccc2)CC1)c1cccs1` (centres undefined), the cell number change worked out at 21.6%. The half-maximal activity concentration (AC50) under setting [1] is 0.116 µM [rising, full curve, poor fit]. Also, the half-maximal activity concentration (AC50) under setting [2] was 1.3 µM [rising, full curve].

Turning to `c1ccc(C(c2nnnn2C2CCCC2)N2CCCCCC2)nc1` (centres undefined), the cell number change was -13.5%.

`O=[N+]([O-])c1ccc(CN2CCN(c3ccc4ccccc4n3)CC2)cc1`: the cell number change was determined as 16.1%. Under setting [2], the AC50 is 0.517 µM [rising, full curve, poor fit].

Turning to `Cc1cc(=O)c(C(=O)O)nn1-c1ccccc1C(F)(F)F`, the cell number change was determined as 7.26%. Further, the AC50 under setting [2] was 6.51 µM [rising, single point].

For the compound `O=C(Cn1ncc(N2CCOCC2)c(Br)c1=O)c1ccc(Cl)cc1`, the cell number change came out at 14%. The AC50 under setting [1] is 4.61 µM [falling, single point]. Moreover, under setting [2], the AC50 is 3.26 µM [falling, single point].

Regarding `CC(=O)Nc1sc(/C(C#N)=C/c2ccc(Cl)c(Cl)c2)nc1-c1ccc(C)cc1`, the cell number change was -71.2%. The AC50 under setting [1] is 8.2 µM [falling, partial curve]. In addition, the AC50 under setting [2] is 29.1 µM [falling, partial curve, poor fit].

As for `CCN1C(=O)C(=O)N(CC(=O)Nc2ccccc2Oc2ccccc2)C1=O`, the cell number change is 54.4%. Also, the AC50 under setting [1] is 5.8 µM [rising, full curve, poor fit]. The AC50 under setting [2] was 6.51 µM [rising, full curve].

Regarding `Cc1ccc(N(C(=O)CC2NC(=O)NC2=O)C2(C(=O)NC3CCCC3)CCCCC2)cc1` (centres undefined), the AC50 under setting [1] is 0.58 µM [falling, single point].

Take `CCN(CC)CCNC(=O)c1cccc(NC(=O)C(=O)c2ccccc2NC(C)=O)c1`: the cell number change was -49.4%. For the same compound, the AC50 under setting [1] was 32.6 µM [falling, partial curve, poor fit].

Consider `Cc1ccc(S(C)=O)cc1-n1c(=O)n(Cc2ccccc2)c(=O)c2[nH]cnc21` (centres undefined), for which the cell number change was 4.17%. Besides, the AC50 under setting [2] was 29.1 µM [falling, single point].

For the compound `Cc1cc(NC(=O)CN2CCN(c3cccc(Cl)c3)CC2)no1`, the cell number change is -14%.

With `Nc1c(-c2ccccc2)cnn1C1CCS(=O)(=O)C1` (centres undefined), the cell number change is -18.8%. Besides, the AC50 under setting [1] is 6.51 µM [falling, partial curve, poor fit]. Under setting [2], the AC50 was 0.731 µM [rising, full curve, poor fit].

Turning to `COc1cc2nc(NC(=O)c3ccc(Cl)cc3)sc(=O)c2cc1OC`, the cell number change came out at 47.5%. The half-maximal activity concentration (AC50) under setting [1] was 13 µM [rising, partial curve, poor fit]. Also, the AC50 under setting [2] was 20.6 µM [rising, single point].

`CN1CCN(CC(=O)Nc2sc3c(c2C#N)CCC(C(C)(C)C)C3)CC1` (centres undefined): the cell number change is -26.3%. The AC50 under setting [1] was 0.651 µM [falling, full curve, poor fit]. Besides, the AC50 under setting [2] was 0.651 µM [falling, single point].

`Cc1ccccc1OCC(=O)N1CCCc2ccccc21`: the cell number change is -33.3%. Under setting [1], the AC50 is 29.1 µM [falling, single point]. In addition, the AC50 under setting [2] was 20.6 µM [rising, single point].

Take `CCOc1ccccc1NC(=O)CCn1nc(C)c(S(=O)(=O)N2CCCCC2)c1C`: the cell number change was 0.306%.

For `COc1ccccc1NC(=O)CSc1nc(=O)n(CCN(C)C)c2c1CCCC2`, the cell number change was -25%. In addition, the AC50 under setting [1] is 1.64 µM [falling, single point].

On to `Cc1ccc(C(C)C)c(OCC(=O)NN=C2CCCC2)c1`, for which the cell number change was -13.2%. The AC50 under setting [2] was 6.51 µM [rising, partial curve, poor fit].

Regarding `O=C(CSc1ncccn1)NC(=O)NCc1ccco1`, the AC50 is 6.51 µM [falling, single point] under setting [1] and 6.51 µM [falling, single point] under setting [2].

Regarding `CC(C)(C)OC(=O)NNC1CC(=O)N(c2ccccc2F)C1=O` (centres undefined), the cell number change was determined as 101%. Further, the AC50 under setting [1] is 23.1 µM [rising, single point].

In the case of `CC1CCN(C(=O)Cn2cc3c(n2)CCCC3)CC1`, the cell number change is -31.7%. Also, the AC50 under setting [1] is 29.1 µM [falling, single point]. Also, the AC50 under setting [2] is 29.1 µM [falling, single point].
